Reference: publication PMC9959666
No constants are given. Whether binding was seen depends on the method and setting. In cells and extracts the contact can be indirect. Binding calls can cover weak binding; strength is not graded here. Sequences can lack the tags named with a protein.

Target: T1, myc-ERR1 (estrogen related receptor alpha) (UniProt P11474)
T1 sequence: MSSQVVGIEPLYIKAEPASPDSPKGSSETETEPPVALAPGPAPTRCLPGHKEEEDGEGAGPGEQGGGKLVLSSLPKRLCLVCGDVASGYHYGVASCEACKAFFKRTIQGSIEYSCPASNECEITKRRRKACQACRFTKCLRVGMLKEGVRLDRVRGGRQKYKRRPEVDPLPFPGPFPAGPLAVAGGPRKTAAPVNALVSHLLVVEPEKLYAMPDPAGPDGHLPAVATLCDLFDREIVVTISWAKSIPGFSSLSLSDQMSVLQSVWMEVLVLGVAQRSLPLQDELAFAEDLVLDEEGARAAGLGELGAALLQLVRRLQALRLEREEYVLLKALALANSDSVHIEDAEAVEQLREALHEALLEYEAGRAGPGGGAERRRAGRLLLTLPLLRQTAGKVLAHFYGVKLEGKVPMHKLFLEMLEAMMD
Experiment: co-IP; myc-ERR1 and the GFP-tagged kinesin fragment co-expressed in HEK293T cells; lysed one day after transfection (50 mM HEPES pH 7.4, 150 mM NaCl, 1.5 mM MgCl2, 0.5 mM CaCl2, 10% glycerol, 1% Triton-X100); lysate incubated overnight at 4 °C with anti-myc antibody, Protein-G sepharose beads; immunoblot

binding: binds
Substance: GFP-KIF17-NR (KIF17 nuclear receptor box motif fragment) (human) (domain or fragment)
